The test has as its system calcium. Put plainly: Antagonism against calcium: inhibition of KCl-induced contraction of rat aorta ring specimens (Magnus tube, Test Example 1). The arrangement: species or system Male Wistar rats. To be noted: inhibits 50% of the maximum contraction by KCl (10-60 mM); rat aorta rings, 37 °C; read-out: 50% inhibitory concentration. The procedure:
A test for antagonism against calcium of a diphenylpiperazine derivative according to the present invention and furnarizine was carried out as follows.
Male Wistar rats (300-350g) were exsanguinated to death and submitted to thoracotomy to take off aortae. Ring specimens having a width of 3 to 4 mm were prepared from the aortae. The specimen was suspended in a Magnus tube which was filled with Krebs Henseleit liquid of 37°±0.5° C., aerated with a mixing gas (95% of O2 and 5% of CO2) flowing in the liquid. A load of approximately 2 g was given to the specimen, and a tension variation was isometrically recorded.
The calcium antagonism was indicated by the concentration (M) of a testing agent which inhibits 50% of the maximum contraction of concentration-dependent-contraction (10-60 mM) of KCl, and the results were shown in Table 1.

As to `Fc1ccc(C(c2ccc(F)cc2)N2CCN(C/C=C/c3ccccc3)CC2)cc1` [Furnarizine, furnarizine, reference compound], the IC50 was found to be 1600 nM.
